Laboratory results: PubChem BioAssay AID662 (National Center for Advancing Translational Sciences (NCATS), 2007)
This is one part of the list. Further columns of the screen follow, without active or inactive calls. Compounds called inactive in the main read-out are mostly missing here. Words in brackets tell the shape of the fitted curve; partial curves, single points and poor fits give uncertain potencies.

Test: Cell signaling CRE-BLA (Fsk stim)
Conditions: CHO CRE-bla reporter (cAMP response element driving beta-lactamase), forskolin EC10, beta-lactamase ratio; measured here: 460 nm blue channel
Summary of the method: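 AC50 values, positive or negative, reflect shifts in EC10 NKH 477-induced CRE-bla reporter activity in CHO cells. Incubation lasted 3 h at 37 °C before CCF4 substrate (2 h, room temperature) and ratiometric 460/530 nm reading.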

SMILES	AC50
Cc1ccc2nc(Nc3ncc4c(n3)CCCC4=O)nc(C)c2c1	1.26 µM [rising, full curve]
C=CCSc1nc(N)c(C#N)c(-c2ccccc2)c1C#N	2 µM [rising, partial curve]
CCN(CC)CCNC(=O)c1c(O)c2c([nH]c1=O)CCCC2	25.1 µM [falling, single point]
Cc1cc(=S)n(-c2ccccc2)n1C	0.631 µM [rising, full curve]
Clc1ccccc1-c1cc(NCc2ccccc2)ncn1	3.98 µM [rising, full curve]
CCN1CCN(C(=O)c2ccc3c(=O)n(CCC4=CCCCC4)c(=O)[nH]c3c2)CC1	25.1 µM [falling, single point]
O=C(COc1ncnc2ccccc12)c1ccc2c(c1)OCCO2	0.126 µM [falling, full curve, poor fit]
COC(=O)Cc1ccc(NC(=O)c2ccc(Br)o2)cc1	0.0794 µM [rising, full curve, poor fit]
CN(C)CCNc1oc(COc2ccc(-c3ccccc3)cc2)nc1C#N	15.8 µM [rising, single point]
O=C(c1ccccc1)[C@@H]1O[C@H]1c1ccc(-c2ccccc2)cc1	25.1 µM [falling, partial curve]
COc1ccc(C(=O)NC(C)c2nc3ccccc3n2C)cc1OC (stereo not drawn)	25.1 µM [rising, single point]
CCOC(=O)c1c(CN(C)C)oc2cc(CN(C)C)c(O)c(CSc3ccccc3)c12	7.94 µM [falling, partial curve]
Cc1nc2ncnn2c(C)c1CCC(=O)NCc1ccco1	0.00398 µM [falling, full curve, poor fit]
O=c1c2ccccc2oc2nc(C3CCCCC3)n(Cc3ccco3)c(=O)c12	1.26 µM [rising, partial curve]
O=C(CSc1nnc2c(Cl)cc(Cl)cn12)N1CCN(S(=O)(=O)c2ccccc2)CC1	12.6 µM [falling, partial curve, poor fit]
O=C(COC(=O)c1ccccn1)c1ccc(Br)cc1	1 µM [rising, single point]
Cn1c(=O)n(CCc2ccccc2)c(=O)c2c1nc1n2CCCN1c1ccccc1	6.31 µM [falling, full curve]
COc1ccccc1C1C(C#N)=C(N)Oc2cc(C)n(CCCn3ccnc3)c(=O)c21 (stereo not drawn)	0.01 µM [falling, full curve, poor fit]
CCOc1cc(C)c(C(C)C)cc1S(=O)(=O)N1CCOCC1	12.6 µM [rising, single point]
COc1ccc(-n2c(=O)c(C)nc3cnc(Nc4cccc(OC)c4)nc32)cc1	15.8 µM [rising, partial curve]
CCNc1ncc2nc(-c3cc(F)cc(F)c3)c(=O)n(Cc3ccc(F)cc3)c2n1	3.98 µM [rising, partial curve]
COc1cccc(Cn2c(=O)c(C)nc3cnc(N4CCN(C)CC4)nc32)c1	2 µM [rising, partial curve]
COc1cc(C(=O)OCCN2CCOCC2)cc(OC)c1OC	10 µM [rising, single point]

Fetched one by one from the entries so far, 2 records:
SMILES	AC50
O=C(c1ccccc1)[C@@H]1O[C@H]1c1ccc(-c2ccccc2)cc1	25.1 µM [falling, partial curve]
COc1ccc(C(=O)NC(C)c2nc3ccccc3n2C)cc1OC (stereo not drawn)	25.1 µM [rising, single point]

(more compounds)

SMILES	AC50
CCNC(=O)c1cc2c(=O)n3cccc(C)c3nc2n1C	15.8 µM [rising, partial curve]
Cc1ccc2nc(SC(C)C(=O)N3CCCC3)[nH]c2c1 (stereo not drawn)	25.1 µM [rising, single point]
O=C(O)CCSCc1ccccc1	0.0794 µM [rising, single point]
O=C(O)CCc1ccc(-c2ccc(Br)cc2)o1	31.6 µM [falling, single point]
CCC(C)NC(=O)CC(NS(=O)(=O)c1ccc(Cl)cc1)c1ccco1 (stereo not drawn)	10 µM [falling, partial curve]
COc1ccc(NC(=O)C2C3C=CC4(CN(Cc5cccnc5)C(=O)C24)O3)c(OC)c1 (stereo not drawn)	0.316 µM [falling, partial curve, poor fit]
CCC(=O)N1CCc2cc(S(=O)(=O)NCCC(=O)N3CCN(Cc4ccccc4)CC3)ccc21	25.1 µM [rising, single point]
COC(=O)[C@@]1(Cc2ccc(OC)cc2)[C@H]2c3cc(C(=O)N(C)C)n(CCF)c3C[C@H]2CN1C(=O)c1ccccc1	12.6 µM [rising, partial curve]
CC(C)(C#N)N([O-])C=C[N+](=O)C(C)(C)C#N	0.00316 µM [falling, full curve, poor fit]
C=C(C)COc1ccc2c3c(c(=O)oc2c1OCC(=C)C)CCC3	12.6 µM [rising, single point]
COc1ccc2c(c1)C(=O)N(c1ccccc1OC)C(=O)C2	20 µM [falling, single point]
NS(=O)(=O)c1ccc(NC2(C(=O)O)CCCC2)cc1	5.01 µM [falling, single point]
Cc1cccc([C@@H]2CN(C)CCc3c2cc(O)c(O)c3Cl)c1	12.6 µM [falling, partial curve, poor fit]
N#CCCn1c(=O)c(-c2cccs2)nc2cnc(Oc3cccc(Cl)c3)nc21	3.98 µM [rising, full curve]
CCCOc1ccc(-c2nnn(CC(=O)Nc3cccc(C(=O)OC)c3)n2)cc1	3.98 µM [rising, single point]
O=C(Cn1nnc2ccccc2c1=O)NC1CCCc2ccccc21 (stereo not drawn)	2 µM [falling, partial curve]
COc1ccc(-c2cc(C(F)F)n3ncc(C(=O)N4CCN5CCCC5C4)c3n2)cc1 (stereo not drawn)	10 µM [rising, partial curve]
COc1ccc(C2=NOC(C(=O)NCc3ccccc3)C2)cc1 (stereo not drawn)	10 µM [rising, partial curve]
CCn1ncc2c(OCc3ccc(C#N)cc3)cc(C)nc21	12.6 µM [rising, partial curve]
O=C(CSc1ncnc2sc3c(c12)CCCCC3)NCc1ccco1	10 µM [rising, partial curve]
COc1ccc(-c2nc(CN3CCC(C(=O)NC(C)C)CC3)c(C)o2)cc1OC	5.01 µM [falling, single point]
CCOC(=O)C1=C(CNCc2ccc(C)cc2)NC(=O)NC1c1ccc(OC)cc1 (stereo not drawn)	10 µM [rising, partial curve]
COc1cccc(C(=O)SC2=NCCS2)c1	0.501 µM [falling, full curve]

SMILES	AC50
Cn1c2ccccc2c(=O)n2c(=O)c3ccccc3cc12	3.16 µM [rising, partial curve, poor fit]
c1ccc(-n2nnnc2SCc2cn3cccnc3n2)cc1	0.2 µM [rising, full curve, poor fit]
Cn1c(=O)c2c(nc(NCc3ccccc3)n2CCCc2ccccc2)n(C)c1=O	15.8 µM [rising, single point]
O=C(c1ccccc1)c1nc[nH]c1C(=O)Nc1ccccn1	12.6 µM [rising, partial curve]
CCN(C(=O)COC(=O)c1cnc(C)cn1)C1CCCCC1	0.00398 µM [falling, full curve, poor fit]
C[C@@H](C(=O)Nc1ccc2ccccc2c1)[C@H]1C[C@]1(C)[C@H](NC(=O)OCc1ccccc1)c1ccccc1	1 µM [falling, full curve]
CS(=O)(=O)N1CCc2cc(C(=O)N3CCOCC3)ccc21	0.0251 µM [falling, full curve, poor fit]
Cc1cccc2nc(CSc3nnnn3-c3ccccc3)cn12	10 µM [rising, partial curve]
CN(C)S(=O)(=O)c1cccc(-c2nnc(SCc3cc(Cl)cc4c3OCOC4)n2N)c1	0.00398 µM [falling, full curve, poor fit]
CCOCC(=O)Nc1nc2ccc(S(C)(=O)=O)cc2s1	2 µM [rising, partial curve]
COC(=O)c1ccc(CSc2nnc(Nc3ccccc3OC)s2)o1	12.6 µM [rising, single point]
Cc1ccccc1-c1cncnc1NCCN1CCOCC1	5.01 µM [rising, full curve]
Cc1nnc(NC(=O)C2CCCN(c3ncccn3)C2)s1 (stereo not drawn)	3.98 µM [falling, partial curve]
O=S1(=O)N=C(N2CCOCC2)c2ccccc21	0.398 µM [falling, partial curve]
O=C(Nc1nccs1)C12CC3CC(C1)CC(C(=O)Nc1nccs1)(C3)C2	12.6 µM [falling, partial curve]
O=C1NC(c2ccccn2)Nc2sc3c(c21)CCC3 (stereo not drawn)	6.31 µM [rising, partial curve]
COc1ccc(N2CSC3=C(C#N)C(c4cc(OC)ccc4OC)CC(=O)N3C2)c(OC)c1 (stereo not drawn)	12.6 µM [rising, partial curve]
Cc1c(N2CCCC2)cc2c(c1NC(=O)c1ccccc1Cl)C(C)(C)CC2(C)C	0.0501 µM [rising, full curve, poor fit]
COc1cc(C)c(S(=O)(=O)Nc2ccccc2F)cc1C	0.631 µM [rising, single point]
COc1ccccc1CNC(=O)C1CCCN(S(=O)(=O)c2cccc3cccnc23)C1 (stereo not drawn)	12.6 µM [falling, single point]
COc1cccc(C(=O)N(Cc2ccc3c(c2)OCO3)Cc2nc3ccccc3c(=O)[nH]2)c1	10 µM [rising, partial curve]
O=C(O)CCC(=O)Nc1ccc(Br)cn1	25.1 µM [falling, single point]
